Results published in PMC8672621.

Amino acid sequences for entries named in this document (tags omitted). A change or cut given only in a name is not applied to a line headed by its entry.
UniProt Q01974: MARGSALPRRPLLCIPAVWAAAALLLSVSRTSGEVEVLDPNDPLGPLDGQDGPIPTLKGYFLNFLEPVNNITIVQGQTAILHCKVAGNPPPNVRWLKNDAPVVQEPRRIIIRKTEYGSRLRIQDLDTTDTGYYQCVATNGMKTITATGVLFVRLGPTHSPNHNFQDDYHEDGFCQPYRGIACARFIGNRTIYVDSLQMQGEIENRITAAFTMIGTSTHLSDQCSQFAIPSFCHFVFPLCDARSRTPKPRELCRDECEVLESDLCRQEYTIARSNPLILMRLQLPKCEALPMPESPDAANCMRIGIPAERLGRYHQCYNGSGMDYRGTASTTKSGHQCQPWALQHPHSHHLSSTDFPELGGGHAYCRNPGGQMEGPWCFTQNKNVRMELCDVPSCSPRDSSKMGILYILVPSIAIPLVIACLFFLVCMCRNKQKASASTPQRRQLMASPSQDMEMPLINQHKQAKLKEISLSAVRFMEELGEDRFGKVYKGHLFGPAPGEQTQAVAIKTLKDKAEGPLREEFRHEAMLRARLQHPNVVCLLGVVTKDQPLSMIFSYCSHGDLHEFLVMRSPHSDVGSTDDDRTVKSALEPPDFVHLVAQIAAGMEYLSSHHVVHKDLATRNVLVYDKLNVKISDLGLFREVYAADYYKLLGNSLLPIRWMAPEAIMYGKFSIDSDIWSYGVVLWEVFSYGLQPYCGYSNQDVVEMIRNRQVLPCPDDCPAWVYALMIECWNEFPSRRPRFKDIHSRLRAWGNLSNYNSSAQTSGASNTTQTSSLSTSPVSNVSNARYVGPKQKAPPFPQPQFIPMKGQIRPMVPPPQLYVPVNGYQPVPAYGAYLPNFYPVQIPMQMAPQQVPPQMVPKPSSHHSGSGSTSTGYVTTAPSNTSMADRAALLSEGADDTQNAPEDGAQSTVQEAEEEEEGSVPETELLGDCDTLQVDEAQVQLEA

Biological target: T1, V5-tagged active WNT11 (human) (UniProt O96014)
T1 sequence: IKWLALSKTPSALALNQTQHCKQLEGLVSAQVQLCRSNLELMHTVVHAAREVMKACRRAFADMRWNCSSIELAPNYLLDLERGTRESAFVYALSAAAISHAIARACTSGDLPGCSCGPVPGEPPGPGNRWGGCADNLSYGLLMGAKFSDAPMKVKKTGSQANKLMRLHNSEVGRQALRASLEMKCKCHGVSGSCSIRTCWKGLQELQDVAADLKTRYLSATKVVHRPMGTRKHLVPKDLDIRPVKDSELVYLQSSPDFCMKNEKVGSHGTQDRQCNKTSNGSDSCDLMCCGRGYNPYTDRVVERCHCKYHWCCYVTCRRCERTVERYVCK
Assay: co-IP; MCF-7 cells expressing ROR2 constructs transfected with V5-WNT11; 24 h later proteins crosslinked 30 min with 1 mM DSS in PBS + 1 mM MgCl2; lysis in 50 mM Tris/HCl pH 8.0, 150 mM NaCl, 1% NP-40; 500 ug protein with 1 ug V5 antibody or normal rabbit IgG 16 h at 4 °C, protein A/G agarose; ROR2 detected by western blot

binding: no binding
Substance: ROR2-ΔΔ (amino acids 304-943) (from UniProt Q01974) (domain or fragment)

These are yes or no findings as the source states them, for the method shown. In cells and extracts the contact can be indirect. Sequences can lack the tags named with a protein.
